Measurements reported in PubChem BioAssay AID1159584 (Peter MacCallum Cancer Centre, 2016)
Assay: 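Knock-downs that harm CDH1-null cells more than parental MCF10A cells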 (primary screen). System: human MCF10A breast epithelial cells, parental and CDH1-null. Reagent: siRNA against human genes. Measurement: 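ATP luminescence (CellTiter-Glo) viability per line relative to mean mock wells over all plates, and the ratio of CDH1-null to parental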. Scale: CDH1-null / parental viability ratio: higher = CDH1-null cells survive relatively better than parental; CDH1-null viability vs mock: higher = more viable CDH1-null cells. Units: CDH1-null viability vs mock in fraction of mock.
Here is an unselected part of about 18,000 deposited reagents. Further read-outs or replicates are left out here. Not given: the amount of reagent, the time to read-out.

After knock-down of LBX2 (GeneID 85474), the screen gave CDH1-null / parental viability ratio 1.16; CDH1-null viability vs mock 1.23.
For OR2B2 (GeneID 81697), the values are CDH1-null / parental viability ratio 0.97; CDH1-null viability vs mock 1.16.
CELF6 (GeneID 60677) gave CDH1-null / parental viability ratio 1; CDH1-null viability vs mock 0.8.
Knock-down of LONP1 (GeneID 9361) gave: CDH1-null / parental viability ratio 1.12; CDH1-null viability vs mock 0.84.
For RAB29 (GeneID 8934), the values are CDH1-null / parental viability ratio 0.8; CDH1-null viability vs mock 0.8.
Silencing of BLTP3A (GeneID 54887) resulted in: CDH1-null / parental viability ratio 1.37; CDH1-null viability vs mock 1.29.
Against XDH (GeneID 7498) the deposit lists CDH1-null / parental viability ratio 0.9; CDH1-null viability vs mock 0.93.
Silencing of GAGE5 (GeneID 2577) came out at: CDH1-null / parental viability ratio 1.22; CDH1-null viability vs mock 0.73.
After knock-down of NRIP3 (GeneID 56675), the screen gave CDH1-null / parental viability ratio 1.05; CDH1-null viability vs mock 0.96.
With knock-down of KCMF1 (GeneID 56888) the results were CDH1-null / parental viability ratio 1.18; CDH1-null viability vs mock 0.92.
For ZNF618 (GeneID 114991) the deposit lists CDH1-null / parental viability ratio 1.07; CDH1-null viability vs mock 0.97.
With knock-down of ZGPAT (GeneID 84619), the record shows CDH1-null / parental viability ratio 1.21; CDH1-null viability vs mock 0.88.
Silencing of SSTR2 (GeneID 6752) came out at: CDH1-null / parental viability ratio 0.82; CDH1-null viability vs mock 0.88.
Depletion of CLASRP (GeneID 11129) resulted in: CDH1-null / parental viability ratio 0.68; CDH1-null viability vs mock 0.49.
Knock-down of MGAT3 (GeneID 4248) came out at: CDH1-null / parental viability ratio 1; CDH1-null viability vs mock 0.72.
After knock-down of DCAF7 (GeneID 10238), the record shows CDH1-null / parental viability ratio 0.72; CDH1-null viability vs mock 0.5.
Against SYNGR3 (GeneID 9143), the entry reads CDH1-null / parental viability ratio 1.23; CDH1-null viability vs mock 1.
Knock-down of CACNA2D2 (GeneID 9254) gave: CDH1-null / parental viability ratio 1.17; CDH1-null viability vs mock 0.94.
For RFFL (GeneID 117584) the deposit lists CDH1-null / parental viability ratio 0.99; CDH1-null viability vs mock 0.95.
Depletion of MRPL35 (GeneID 51318) gave: CDH1-null / parental viability ratio 1.18; CDH1-null viability vs mock 1.06.
With knock-down of PKP3 (GeneID 11187), the record shows CDH1-null / parental viability ratio 0.75; CDH1-null viability vs mock 0.65.
With knock-down of SNN (GeneID 8303), the record shows CDH1-null / parental viability ratio 1.22; CDH1-null viability vs mock 0.6.
For INHBA (GeneID 3624) the deposit lists CDH1-null / parental viability ratio 0.84; CDH1-null viability vs mock 0.81.
Silencing of PDE5A (GeneID 8654) resulted in: CDH1-null / parental viability ratio 1.02; CDH1-null viability vs mock 1.12.
FBLN7 (GeneID 129804) scored CDH1-null / parental viability ratio 1.13; CDH1-null viability vs mock 1.06.
Against TMEM87A (GeneID 25963), the values are CDH1-null / parental viability ratio 0.82; CDH1-null viability vs mock 0.84.
With knock-down of ENTPD5 (GeneID 957), the screen gave CDH1-null / parental viability ratio 1.14; CDH1-null viability vs mock 1.04.
NSD1 (GeneID 64324) scored CDH1-null / parental viability ratio 0.89; CDH1-null viability vs mock 0.5.
Depletion of ZNF750 (GeneID 79755) came out at: CDH1-null / parental viability ratio 0.85; CDH1-null viability vs mock 0.5.
Silencing of OR52N1 (GeneID 79473) resulted in: CDH1-null / parental viability ratio 1.06; CDH1-null viability vs mock 0.72.
For TOGARAM1 (GeneID 23116), the entry reads CDH1-null / parental viability ratio 0.69; CDH1-null viability vs mock 0.59.
CLCN3 (GeneID 1182) showed CDH1-null / parental viability ratio 1.1; CDH1-null viability vs mock 0.88.
Knock-down of TRMT1L (GeneID 81627) resulted in: CDH1-null / parental viability ratio 1.09; CDH1-null viability vs mock 0.98.
FAM135B (GeneID 51059) gave CDH1-null / parental viability ratio 0.93; CDH1-null viability vs mock 0.76.
After knock-down of MEMO1 (GeneID 51072), the screen gave CDH1-null / parental viability ratio 0.83; CDH1-null viability vs mock 0.68.
